Reference: PubChem BioAssay AID2685 (National Center for Advancing Translational Sciences (NCATS), 2010)
The other results are listed elsewhere or left out. These are further read-outs of the screen, such as a control signal, another cell line or another target. No call is given for them. The list favours compounds with an active or inconclusive main result. Words in brackets tell the shape of the fitted curve; partial curves, single points and poor fits give uncertain potencies.

Experiment: qHTS Assay for Lipid Storage Modulators in Drosophila S3 Cells;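 on cell number change: cells counted by Cell Tracker Red CMTPX staining in the red channel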
Details: BODIPY lipid droplet fluorescence, 18-24 h; for cell number change: measured here: cell count max response, cells fed with added oleic acid
Summary of the method: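 Drosophila S3 cells loaded with oleic acid (400 uM, as added) and compounds at several concentrations; lipid droplets imaged by 488-nm laser-scanning cytometry, 500–530 nm intensity and object ratio to cell channel. Percent activity normalized to 20 uM Triacsin C.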

[1] = measured here: cell number channel AC50, cells fed with added oleic acid
[2] = measured here: lipid fluorescence (Fed channel) AC50, cells fed with added oleic acid

| SMILES | cell number change | AC50 [1] | AC50 [2] |
| --- | --- | --- | --- |
| COc1cc(C(=O)NCc2ccc(-c3nc4ccccc4s3)cc2)cc(OC)c1OC | -66% | 29.1 µM [falling, single point] | 29.1 µM [falling, single point] |
| COc1ccc([C@@H]2CC(=O)c3c(O)cc(O)cc3O2)cc1O | 11.7% | 6.51 µM [rising, single point] | – |
| O=C(Nc1ccccc1)c1c(F)cccc1F | 33.6% | 13 µM [rising, partial curve, poor fit] | – |
| CN(C(=O)COC(=O)CNC(=O)c1ccc(Cl)cc1Cl)c1ccccc1 | -49.6% | – | 32.6 µM [falling, single point] |
| CCO[C@@H]1OC(C(=O)Nc2ccccc2)=C[C@H](c2ccc(Br)cc2)[C@H]1CCCO | -21.5% | – | 11.6 µM [falling, partial curve, poor fit] |
| COc1cccc(-c2ccc(NC(=O)C3CCCN(Cc4cnc(C)n4C)C3)cc2)c1 (configuration not stated) | 5.45% | 6.51 µM [rising, single point] | 29.1 µM [rising, single point] |
| CCN(CC(=O)NCc1ccc(F)cc1)C(=O)/C=C/c1ccc(S(=O)(=O)N(CC)CC)cc1 | -23.8% | – | 29.1 µM [falling, single point] |
| COc1ccc(Cl)cc1C(=O)NCCCSc1ccccc1 | 19.2% | – | 9.2 µM [falling, partial curve] |
| COc1cc(C(=O)NCCSc2ccc(F)cc2)cc(OC)c1OC | – | 0.206 µM [rising, partial curve, poor fit] | – |
| CC(=O)Nc1ccc(S(=O)(=O)N(C)CC(=O)OCC(=O)N2CCCCC2)cc1 | -51.7% | 5.8 µM [falling, full curve] | 29.1 µM [falling, single point] |
| CC[C@H](C)[C@H](NC(N)=O)C(=O)Nc1ccc(NC(C)=O)cc1 | -47.4% | 7.31 µM [falling, partial curve] | 9.2 µM [falling, partial curve, poor fit] |
| CN(CCc1ccccn1)C1CC(=O)N(c2ccc(Cl)cc2)C1=O (configuration not stated) | 12.6% | – | 0.731 µM [falling, partial curve, poor fit] |
| CC(C)Cn1c(SCC(=O)Nc2ncccn2)nc2ccccc21 | – | 6.51 µM [rising, single point] | 4.11 µM [rising, partial curve] |
| O=C1CC(c2ccc(F)cc2)C2=C(CCCC2=O)N1 (configuration not stated) | 11.8% | – | 29.1 µM [falling, single point] |
| COc1ccc2[nH]c(=O)c(CN(c3ccccc3OC)S(=O)(=O)c3ccccc3)cc2c1 | -35.9% | 23.1 µM [falling, single point] | – |
| COc1cc(CNCCSc2nnnn2C)cc(Br)c1OCc1ccc(F)cc1 | -13.3% | – | – |
| C[C@@H](NC(=O)c1nc[nH]c1C(=O)N(C)Cc1ccccc1)c1ccccc1 | -36.2% | 13 µM [falling, single point] | 7.31 µM [falling, partial curve, poor fit] |
| CN(C)c1ccc(-c2nn3c(-c4ccc(Cl)cc4Cl)nnc3s2)cc1 | – | 0.92 µM [rising, partial curve] | 0.517 µM [rising, partial curve, poor fit] |
| C=CCn1c(=O)c2ccccc2n2c(SCC(=O)NCCc3ccccc3)nnc12 | 15.1% | 1.16 µM [rising, full curve, poor fit] | 2.06 µM [rising, partial curve, poor fit] |
| CNC(=O)C1CCN(S(=O)(=O)c2c(C)noc2/C=C/c2ccc(OC)cc2)CC1 | -4.8% | – | 0.259 µM [rising, full curve, poor fit] |
| CCN1C(=O)[C@H]2[C@@H](c3ccc(-c4ccccc4)cc3)N[C@@](Cc3ccccc3)(C(=O)OC)[C@H]2C1=O | – | – | 29.1 µM [rising, single point] |
| CCCNC(=O)c1ccc2c(c1)CCN2S(C)(=O)=O | -0.664% | – | 4.47 µM [falling, single point] |
| O=C1/C(=C/c2cccc(O)c2)SC(=S)N1CC1CCCO1 (configuration not stated) | -29.4% | – | 32.6 µM [falling, single point] |
| CNC(=O)c1oc(-c2ccc(Cl)cc2)nc1C | – | – | 5.17 µM [falling, full curve, poor fit] |
| Cc1ccccc1-c1nc(CS(=O)CC(=O)NC2CCCCC2)c(C)o1 (configuration not stated) | -8.94% | – | 11.6 µM [falling, partial curve, poor fit] |
| O=C(Nc1ccccn1)Nc1ccccc1Cl | 10.7% | – | 29.1 µM [rising, single point] |
| COC(=O)C1=C(C)NC(=O)/C1=C\c1cc(C)n(-c2c(C)cccc2C)c1C | -2.86% | 1.3 µM [rising, full curve] | 1.3 µM [rising, full curve] |

2 entries picked at random from those above:

| SMILES | cell number change | AC50 [1] | AC50 [2] |
| --- | --- | --- | --- |
| Cc1ccccc1-c1nc(CS(=O)CC(=O)NC2CCCCC2)c(C)o1 (configuration not stated) | -8.94% | – | 11.6 µM [falling, partial curve, poor fit] |
| O=C(Nc1ccccn1)Nc1ccccc1Cl | 10.7% | – | 29.1 µM [rising, single point] |
